Values joined by “and” are separate entries in the source; they are usually repeats but may differ in a detail not shown here. Equal values may be shown once. About 6,000 (1.7%) of roughly 350,000 compounds were called active. Inconclusive means that the source gave no clear call. Such entries were picked first, then a sample of the others. Rule as the data show it: active = CPE inhibition above about 20% (passing the limit was not always enough); inconclusive = no clear call, values can overlap the other calls; tested in BHK-21 cells. More than one record can exist for a structure, and the calls need not agree.
assay: protection of cells from dengue 2 killing – plate reader, single concentration, primary screen (AID 651640); conditions: DENV2-infected cells, cytopathic effect rescue, at 9.99 µM, stronger effect = higher value;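 also: 0% = median of neutral control wells and 100% = median of positive control wells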

SMILES	CPE inhibition
CCC(=O)N1[C@@H]2c3ccc(-c4cccc(F)c4)c(=O)n3C[C@@H]2[C@@H](CO)[C@@H]1C(=O)OC	active: 76.5%
C[C@@H]1CN([C@H](C)CO)C(=O)c2cccc(NC(=O)Nc3ccc(C(F)(F)F)cc3)c2O[C@@H]1CN(C)Cc1ccccc1	inconclusive: 31.3%
CCc1nc2ccc(C(=O)NCc3ccccc3OC)cn2c1N(C)Cc1ccc(OC)cc1	inconclusive: 59.6%
Cc1ccc2sc(NNC(=O)C3COc4ccccc4O3)nc2c1C (stereo unspecified)	inconclusive: 23.6%
CCN(CC)S(=O)(=O)c1ccc2c(c1)nc(CCC(=O)OCC(=O)Nc1c(F)cccc1F)n2C	active: 45.5%
CCN(CC)Cc1c(C(=O)N/N=C/c2ccccn2)nnn1-c1nonc1N	inconclusive: 21.2%
OCC(Cc1ccc2c(c1)OCO2)C(CO)Cc1ccc2c(c1)OCO2 (stereo unspecified)	inactive: -1.59%
O=C(O)c1nc(Cl)c(Cl)c(N/N=C/c2ccccc2C(F)(F)F)c1Cl	inconclusive: 27.1%
C[C@H](CO)N1C[C@H](C)[C@H](CN(C)C(=O)NC2CCCCC2)Oc2c(NC(=O)C3CC3)cccc2C1=O	active: 20.6%
COC(=O)[C@@]1(CCS(=O)(=O)c2ccccc2)N=C(c2ccc(OCCCO)cc2)O[C@H]1c1ccccc1	active: 27%
C[C@@H]1CN([C@@H](C)CO)C(=O)c2cccc(NC(=O)Nc3ccc4c(c3)OCO4)c2O[C@H]1CN(C)C(=O)Nc1ccc(C(F)(F)F)cc1	inactive: 17.2%
COc1cccc(CN(C)C(=O)c2cc(S(=O)(=O)NC3CCCCC3)ccc2C)c1OC	inconclusive: 28.7%
COc1ccc(NC(=O)Nc2ccc3c(c2)C(=O)N([C@@H](C)CO)C[C@@H](C)[C@@H](CN(C)C(=O)C2CCCCC2)OCCCC[C@H](C)O3)cc1	inactive: -17%
CN(C)CCNC(=O)C1CCN(S(=O)(=O)c2ccc3ccccc3c2)CC1	inconclusive: 25.7%
COc1cc(NC(=O)c2nccn2C)cc(C(=O)Nc2cccc(C(F)(F)F)c2)c1	active: 110%
CN(C)/C=C1\C(=O)Oc2ccccc2C1=O	inconclusive: 30.4%
COc1ccc(NC(=O)NC(C)c2ccc3c(c2)OCO3)c(OC)c1 (stereo unspecified)	inconclusive: 25.1%
CCN(CC(=O)Nc1ccccc1C(F)(F)F)C(=O)CN1C(=O)NC2(CCCCC2)C1=O	inconclusive: 24.8%
Clc1ccc2c(c1)C1CC2CCN1Cc1ccccc1 (stereo unspecified)	inactive: -1.38%
O=C(O)/C=C/c1cn(-c2ccccc2)nc1-c1cccs1	active: 21.7%
O=C(Nc1cccc(S(=O)(=O)N2CCCCC2)c1)C1=NN(c2ccccc2)C(=O)CC1	inconclusive: 60%
Cc1c(C(=O)NCc2cccnc2)oc2ccc(S(=O)(=O)N3CC(C)CC(C)C3)cc12 (stereo unspecified)	active: 21.2%
Cc1noc(C)c1S(=O)(=O)Nc1ccc2c(c1)C(=O)N([C@@H](C)CO)C[C@@H](C)[C@H](CN(C)C(=O)c1ccccc1)OCCCC[C@@H](C)O2	inactive: 0.158%
O=C(C[C@H]1CC[C@H]2[C@@H](COC[C@@H](O)CN2Cc2cccc(C(F)(F)F)c2)O1)NCCc1ccccc1	active: 25.6%

Rewritten with each value named: part of the list above.
OCC(Cc1ccc2c(c1)OCO2)C(CO)Cc1ccc2c(c1)OCO2 (stereo unspecified)
  CPE inhibition: inactive: -1.59%
COc1ccc(NC(=O)Nc2ccc3c(c2)C(=O)N([C@@H](C)CO)C[C@@H](C)[C@@H](CN(C)C(=O)C2CCCCC2)OCCCC[C@H](C)O3)cc1
  CPE inhibition: inactive: -17%
O=C(Nc1cccc(S(=O)(=O)N2CCCCC2)c1)C1=NN(c2ccccc2)C(=O)CC1
  CPE inhibition: inconclusive: 60%

Following part.

SMILES	CPE inhibition
O=C(Nc1ccccc1F)N1C[C@H]2[C@@H](c3ccccc31)[C@@H](CO)N2C(=O)Cc1ccccc1	inconclusive: 40.6%
O=S(=O)(NC1CCCC1)c1cc(F)ccc1F	inconclusive: 68.7%
Cc1ccc(-c2ccc([C@H]3[C@H](CO)N4CCCCN(Cc5cncnc5)C[C@@H]34)cc2)cc1	inactive: -2.12%
NC(=O)CC(NC(=O)c1ccccc1)c1ccc(NCCc2ccc(F)cc2)c([N+](=O)[O-])c1 (stereo unspecified)	inconclusive: 42.6%
O=S1(=O)CC(N2CCN(c3ccccn3)CC2)CN1C1CCCCC1 (stereo unspecified)	inconclusive: 23.8%
CCC(C(=O)NC1CCCCCC1)n1nc(C)c2c(C)n(-c3ccccc3)nc2c1=O (stereo unspecified)	inconclusive: 52.4%
CC1(C)C(=O)Nc2ccccc2N1C(=O)COC(=O)Cc1c(F)cccc1Cl	inconclusive: 20.7%
CCCC[C@@H](CNC)NC[C@H](NCCCCC1CCCCC1)C(C)C	inconclusive: 50%
COCC(=O)N(C)C[C@H]1Oc2ncc(-c3cccc(OC)c3)cc2C(=O)N([C@@H](C)CO)C[C@@H]1C	inactive: 5.73%
C[C@H](CO)N1C[C@H](C)[C@@H](CN(C)C(=O)Nc2ccc(C(F)(F)F)cc2)OCCCC[C@H](C)Oc2ccc(NS(=O)(=O)c3ccc(F)cc3)cc2C1=O	active: 94.5%
Cc1noc(C)c1NC(=O)Nc1cccc2c1O[C@@H](CN(C)Cc1ccc(C(F)(F)F)cc1)[C@H](C)CN([C@@H](C)CO)C2=O	active: 23.3%
C[C@@H]1CCCCO[C@H](CN(C)S(=O)(=O)c2cccs2)[C@H](C)CN([C@@H](C)CO)C(=O)c2cc(NC(=O)Cc3ccccc3)ccc2O1	inconclusive: 83.1%
CNc1ncnc2c1ncn2[C@H]1CN(Cc2ccncc2)C[C@@H](CO)O1	inconclusive: 33.4%
CC(C)NC(=O)N(C)C[C@@H]1Oc2ccc(NC(=O)C3CC3)cc2CC(=O)N([C@@H](C)CO)C[C@H]1C	inactive: -1.64%
CN1CCCCN2[C@H](CO)[C@@H](c3ccc(-c4ccccc4)cc3)[C@@H]2C1	inconclusive: 21.9%
O=C(C[C@@H]1CC[C@H]2[C@@H](COC[C@H](O)CN2C(=O)c2ccc3c(c2)OCO3)O1)NCCN1CCCCC1	inactive: -0.074%
COc1ccc(C(=O)NCc2nnc(SCC(=O)Nc3ccc4c(c3)OCO4)o2)cc1	inconclusive: 26.9%
C[C@H]1CN([C@@H](C)CO)C(=O)c2c(c3ccccc3n2C)-c2ccccc2CO[C@H]1CN(C)S(=O)(=O)c1ccc(C(F)(F)F)cc1	inactive: 7.26%
C[C@@H]1CN([C@H](C)CO)C(=O)CCCn2nncc2CO[C@H]1CN(C)C(=O)c1ccncc1	inconclusive: 25.7%
CC1=C(C(=O)OCc2ccccc2)C(c2ccccc2)NC(=O)N1 (stereo unspecified)	inconclusive: 47%
C[C@H](CO)N1C[C@H](C)[C@H](CN(C)Cc2ccc(-c3ccccc3)cc2)Oc2c(NC(=O)c3nc4ccccc4s3)cccc2C1=O	active: 41.4%
C[C@@H]1CCCCO[C@@H](CN(C)S(=O)(=O)c2ccc(Cl)cc2)[C@@H](C)CN([C@@H](C)CO)C(=O)c2cc(NC(=O)NC3CCCCC3)ccc2O1	inactive: 5.27%
CCS(=O)(=O)NCC[C@@H]1CC[C@@H](NS(=O)(=O)c2ccccc2C)[C@H](CO)O1	active: 49.6%
Cn1c2ccccc2c2cc(/C=N/NC(=O)c3cc(O)ccc3O)ccc21	inconclusive: 60.6%

SMILES	CPE inhibition
N#C/C(=C/c1cn(-c2ccccc2)nc1-c1cccc(S(=O)(=O)N2CCOCC2)c1)C(=O)NCc1ccco1	inconclusive: 38%
OC[C@H]1[C@H]2c3ccccc3NC[C@H]2N1CC1CCCCC1	inconclusive: 32.1%
N#Cc1ccc(-c2ccc3c(c2)[C@H]2[C@H](CCN2C(=O)C2CCC2)[C@H](CO)N3)cc1	active: 34.9%
COc1ccc(NC(=O)COC(=O)c2ccc3ccccc3n2)c(OC)c1	inconclusive: 22.3%
CC(C)Cc1cc(C(=O)Nc2cc(Br)ccc2O)no1	inconclusive: 63.8%
CS(=O)(=O)c1ccc(-c2nnc(NC(=O)C3=COCCO3)o2)cc1	inconclusive: 22.3%
CCC(=O)Nc1ccc2c(c1)C(=O)N(C)[C@@H]1CC[C@@H](CC(=O)N[C@@H](C)c3ccccc3)O[C@@H]1CO2	inconclusive: 45.9%
COc1ccc(S(=O)(=O)Nc2ccc3c(c2)C(=O)N([C@H](C)CO)C[C@H](C)[C@@H](CN(C)C(=O)NC(C)C)O3)cc1	inconclusive: 36.9%
O=C(NCc1ccco1)c1ccccc1SCC(=O)N1CCCC1	inconclusive: 24.3%
Cc1nc2cc(NC(=O)C3(C)CCCN(C(C)C)C3)ccc2o1 (stereo unspecified)	inconclusive: 62.9%
C/C=C/c1ccc([C@H]2[C@@H](CO)N(C(=O)CC)[C@@H]2CN(C)C(=O)NC(C)C)cc1	inconclusive: 28.5%
Fc1cccc(-c2ccc(C3[C@@H]4CN(Cc5cncnc5)C[C@H]3N4)cc2)c1 (stereo partly specified)	inconclusive: 29.1% and active: 28.1%
Nc1ccn(CC(=O)N[C@H](CO)Cc2c[nH]c3ccccc23)c(=O)n1	inactive: -8.09%
COc1ccc(NS(=O)(=O)c2cccs2)cn1	active: 23.6%
Cc1ccc2oc3c(c(=O)c2c1)C(c1cccc(Cl)c1)N(CCCN1CCOCC1)C3=O (stereo unspecified)	active: 54.6%
Cc1ccc(S(=O)(=O)Nc2ccc3c(c2)C(=O)N([C@H](C)CO)C[C@@H](C)[C@H](CN(C)C(=O)CCCN(C)C)OCCCC[C@@H](C)O3)cc1	inconclusive: 43.9%
CC(C)(O)C1=C[N+](=O)CC=C1	inconclusive: 58.9%
Cc1ncc(CO)c(/C=N/NC(=O)c2cc(Br)ccc2O)c1O	inactive: 0.497%
Cc1ccc(S(=O)(=O)N(C)C[C@@H]2OCCCC[C@@H](C)Oc3ccc(NC(=O)CCCN(C)C)cc3C(=O)N([C@H](C)CO)C[C@@H]2C)cc1	inactive: -2.52%
COc1ccc2c3c([nH]c2c1)[C@@H](CO)N(Cc1cc(F)ccc1F)CC31CN(C(C)=O)C1	inconclusive: 32.7%
Cc1ccc(NCCCn2cnc(C(=O)Nc3ccc(C)c(C)c3)n2)cc1C	inactive: 8.7%
Cc1nc2ccc(C(=O)N3c4ccccc4N=C(c4ccc(C(F)(F)F)cc4)C3C(=O)NC(C)(C)C)cc2[nH]1 (stereo unspecified)	active: 36.9%
CCOC(=O)[C@]12CCCC=C1N(Cc1cccc3ccccc13)C(=O)[C@H](CC(=O)N1CCCC1)C2	inconclusive: 32.8%

Reference: PubChem BioAssay AID651640 (Broad Institute, 2012)
